Laboratory results taken from PubChem BioAssay AID1487 (National Center for Advancing Translational Sciences (NCATS), 2009).
This is one part of the list. The main result of the screen is listed elsewhere. These columns were measured beside it and carry no call. Compounds called inactive in the main read-out are mostly missing here. Words in brackets tell the shape of the fitted curve; partial curves, single points and poor fits give uncertain potencies.

Assay: qHTS Assay for Modulators of Lamin A Splicing
Conditions: HeLa LMNA splicing GFP/RFP minigene ratio, 48 h
Summary of the method: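 Read-out is the ratio of GFP to DsRed2 object intensity, acquired by 488 nm laser-scanning cytometry on HeLa lamin A-EGFP minigene reporter cells. Compound incubation 48 hrs at 37 °C in Opti-MEM with 2% FBS; DMSO 0.5% final.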

[1] = measured here: GFP splicing reporter channel
[2] = measured here: RFP viability control channel

Row | Structure (SMILES) | AC50 [1] | AC50 [2]
1 | Cc1ccc(NC(=O)N2CC=C(c3c[nH]c4ccccc34)CC2)cc1Cl | 17.8 µM [rising, single point] | 14.1 µM [rising, single point]
2 | CCOCCn1ccc2c(OCC(=O)Nc3cc(C)cc(C)c3)cccc2c1=O | – | 4.47 µM [falling, full curve]
3 | Cc1nn(C)c(C)c1CNC(=O)c1nn2c(c1Cl)NC(c1cccs1)CC2C(F)(F)F (stereo not drawn) | – | 10 µM [rising, partial curve, poor fit]
4 | COc1ccc(CC(=O)Nc2nccs2)cc1OC | 11.2 µM [rising, single point] | 15.8 µM [rising, single point]
5 | N#C/C(=C/c1cccc([N+](=O)[O-])c1)c1nnc2n1CCCCC2 | – | 12.6 µM [rising, partial curve]
6 | COc1ccc(NC(=O)c2ccc(C#CC(C)(C)O)cc2)cc1 | – | 20 µM [rising, single point]
7 | Cc1cccc(C(=O)Nc2ccc(OCc3cc(=O)n4ccc(C)cc4n3)cc2)c1 | – | 0.0251 µM [falling, full curve, poor fit]
8 | COC(=O)c1ccc(CSc2nnc(SCc3ccc(C(=O)OC)o3)s2)o1 | 0.0398 µM [rising, full curve, poor fit] | –
9 | COC(=O)c1ccccc1NC(=O)NCc1ccc2c(c1)CCN2C(=O)c1ccccc1 | 0.282 µM [falling, full curve, poor fit] | 0.158 µM [falling, full curve, poor fit]
10 | C/C(=C\C(=O)N1CCc2ccccc21)C(=O)O | 2 µM [rising, full curve] | 2.51 µM [rising, full curve]
11 | CN1CCN(c2nc3cc(C(F)(F)F)ccc3n3cccc23)CC1 | 5.62 µM [falling, partial curve, poor fit] | 14.1 µM [falling, single point]
12 | O=C(COc1ccccc1)Nc1cccc(-c2nc3cc4ccccc4cc3[nH]2)c1 | 25.1 µM [falling, single point] | 35.5 µM [falling, single point]
13 | COc1cccc(N2CCN(CC(=O)c3c(C)[nH]c4ccccc34)CC2)c1 | – | 15.8 µM [rising, partial curve]
14 | CC1CCN(C(c2ccc(N(C)C)cc2)c2nnnn2Cc2ccc(F)cc2)CC1 (stereo not drawn) | 14.1 µM [rising, single point] | –
15 | COc1ccc(N(C(C)C(=O)N2CCC(Cc3ccccc3)CC2)S(C)(=O)=O)cc1 (stereo not drawn) | 5.01 µM [falling, full curve] | 5.62 µM [falling, full curve, poor fit]
16 | CN(C)c1ccc(-c2noc(C3CCN(S(=O)(=O)c4cccc(Cl)c4)CC3)n2)cc1 | – | 20 µM [rising, single point]
17 | COc1ccc(CN2C(=O)CCCc3ccccc32)cc1 | 0.0224 µM [rising, full curve] | –
18 | COc1ccccc1N(CC(=O)N(c1ccccc1)C(C)C)S(=O)(=O)c1cccs1 | 0.0398 µM [falling, full curve] | –

Row | Structure (SMILES) | AC50 [1] | AC50 [2]
19 | CCS(=O)(=O)Nc1cc(OC)c(OC)cc1Cc1nccc2cc(OC)c(OC)cc12 | 0.282 µM [falling, full curve, poor fit] | –
20 | COc1cccc(Cn2c(=O)c(-c3ccc(F)cc3)nc3cnc(N4CCNCC4)nc32)c1 | 22.4 µM [falling, partial curve] | 25.1 µM [falling, partial curve]
21 | COC(=O)c1scc(-c2ccc(C)cc2)c1S(=O)(=O)N1CCN(c2cccc(Cl)c2)CC1 | – | 2.51 µM [rising, partial curve, poor fit]
22 | COc1ccc(-n2c(=O)c(-c3cn(C)c4ccccc34)nc3cnc(N4CCOCC4)nc32)cc1 | 14.1 µM [falling, single point] | 17.8 µM [falling, partial curve]
23 | COCCNCC(=O)N1CCCCCC1 | – | 0.126 µM [rising, full curve]
24 | CC(=O)/C(=C/c1ccc(N(C)C)cc1)C(=O)c1ccccc1 | – | 14.1 µM [rising, single point]
25 | Cc1sc(N(C(=O)CCc2ccccc2)c2ccc(C(=O)O)cc2)nc1-c1ccccc1 | – | 35.5 µM [rising, single point]
26 | Cc1c(C(=O)Nc2c(F)cccc2F)sc2ncn(Cc3ccccc3F)c(=O)c12 | 6.31 µM [falling, partial curve, poor fit] | –
27 | C=COCCNC(=S)Nc1ccccc1 | – | 17.8 µM [falling, single point]
28 | Cc1ccccc1OCC(=O)OCC(=O)Nc1ccc(N2CCOCC2)cc1 | 0.794 µM [falling, full curve, poor fit] | –
29 | CCc1ccc(C(=O)NC(C(=O)NCC2CCCO2)C(C)C)cc1 (stereo not drawn) | 10 µM [rising, partial curve, poor fit] | –
30 | COc1ccc(S(=O)(=O)N(CC(=O)Nc2ccc(Br)cc2)Cc2ccccc2)cc1 | 12.6 µM [falling, partial curve] | 8.91 µM [falling, full curve]
31 | Cc1nc2ccc(NC(=O)COc3ccccc3F)cc2s1 | 0.891 µM [rising, full curve, poor fit] | –
32 | NCC12CC3CC(C1)CC(c1ccc(Cl)cc1)(C3)C2 | 11.2 µM [falling, single point] | 25.1 µM [falling, single point]
33 | O=C(c1ccc(S(=O)(=O)c2ccc(F)cc2)c([N+](=O)[O-])c1)N1CCCCCC1 | – | 3.16 µM [falling, single point]
34 | CCN(CC)CCN(C(=O)CCOc1ccccc1)c1nc2ccc(F)cc2s1 | 0.112 µM [rising, partial curve] | –
35 | C[N+]1(CC(O)COCC2COc3ccccc3O2)CCOCC1 (stereo not drawn) | 0.01 µM [rising, full curve, poor fit] | –
36 | NC(=O)c1c(-c2ccc(Cl)cc2Cl)csc1NC(=O)Cc1ccccc1 | 6.31 µM [rising, full curve, poor fit] | 2.82 µM [rising, full curve]

Part of the list above in order of molar mass, low to high.
Row | Structure (SMILES) | AC50 [1] | AC50 [2]
6 | COc1ccc(NC(=O)c2ccc(C#CC(C)(C)O)cc2)cc1 | – | 20 µM [rising, single point]
33 | O=C(c1ccc(S(=O)(=O)c2ccc(F)cc2)c([N+](=O)[O-])c1)N1CCCCCC1 | – | 3.16 µM [falling, single point]
20 | COc1cccc(Cn2c(=O)c(-c3ccc(F)cc3)nc3cnc(N4CCNCC4)nc32)c1 | 22.4 µM [falling, partial curve] | 25.1 µM [falling, partial curve]
